{"source": "PubChem BioAssay AID200", "about": "(DTP/NCI, 2004)", "system": "B6C3F1 mice, B16 melanoma ip, median survival T/C", "assay": "NCI In Vivo Anticancer Drug Screen. Data for tumor model B16 Melanoma (intraperitoneal) in B6C3F1 mice", "conditions": "T/C endpoint: median survival time, schedule: Q01DX009 (ip), higher T/C = longer survival", "outline": "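Readout: survival or tumor size in treated mice relative to vehicle controls (T/C). Model uses transplantable tumors grown in mice.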", "key": {"[1]": {"conditions": "dose: 1.0 mg/kg/injection, vehicle: saline"}, "[2]": {"conditions": "dose: 8.0 mg/kg/injection, vehicle: saline"}, "[3]": {"conditions": "dose: 16.0 mg/kg/injection, vehicle: saline"}, "[4]": {"conditions": "dose: 32.0 mg/kg/injection, vehicle: saline"}, "[5]": {"conditions": "dose: 100.0 mg/kg/injection, vehicle: saline"}, "[6]": {"conditions": "dose: 200.0 mg/kg/injection, vehicle: saline"}, "[7]": {"conditions": "dose: 400.0 mg/kg/injection, vehicle: saline"}, "[8]": {"conditions": "dose: 200.0 mg/kg/injection, vehicle: distilled water + Tween-80"}, "[9]": {"conditions": "dose: 400.0 mg/kg/injection, vehicle: distilled water + Tween-80"}, "[10]": {"conditions": "dose: 100.0 mg/kg/injection, vehicle: saline with Tween-80"}, "[11]": {"conditions": "dose: 400.0 mg/kg/injection, vehicle: saline with Tween-80"}, "[12]": {"conditions": "dose: 800.0 mg/kg/injection, vehicle: saline with Tween-80"}}, "note": "The list shows only some results of the screen, not a fair sample: it gathers tests that were run many times, whatever their T/C, doses with no T/C, and many T/C values between a quarter and a half above the control. Further doses and runs are listed elsewhere. T/C gives the treated animals as a percentage of the vehicle group. Some entries give survivors of the animals treated and no T/C: the source holds a T/C of zero for them, seemingly a mark for toxic or unscored doses. Some survivor counts are full or nearly so, which does not show that the dose was tolerated: the source hardly ever lists a survival T/C far under the control, and the zero likely stands for such cases as well. Survivors were counted at the toxicity check, usually on the fifth day, unless a day is given; later deaths do not show. Schedules are NCI's codes, taken here to give the interval after Q, in days (D) or hours (H), and the number of doses after X. Some entries hold several experiments; their values stand side by side, smallest first. Where survival is the endpoint, this PubChem deposit counts one and a half times the control or more as active, and values a quarter to a half above the control carry no call in these data; other NCI protocols may use other cut-offs. Some T/C values are followed by the survivors on the day toxicity was checked, most often the fifth; where none is given, no animal had died by that day.", "data": [{"compound": "O=C(O)Cc1cccc2c(=O)cc(-c3ccccc3)oc12", "values": [{"measurement": "T/C", "setting": "dose: 50.0 mg/kg/injection, vehicle: suspension in saline", "value": "135 % of control"}, {"measurement": "survivor count", "setting": "dose: 200.0 mg/kg/injection, vehicle: suspension in saline", "value": "5 of 10 and 9 of 10"}]}, {"compound": "Nc1ncn(C2OC(CO)C(O)C2O)c(=O)n1", "note": "(configuration not stated)", "values": [{"measurement": "survivor count", "setting": "[1]", "value": "10 of 10"}, {"measurement": "survivor count", "setting": "dose: 2.0 mg/kg/injection, vehicle: saline", "value": "9 of 10"}, {"measurement": "T/C", "setting": "dose: 3.0 mg/kg/injection, vehicle: saline", "value": "131 % of control"}, {"measurement": "survivor count", "setting": "dose: 4.0 mg/kg/injection, vehicle: saline", "value": "9 of 10"}, {"measurement": "survivor count", "setting": "[2]", "value": "10 of 10"}, {"measurement": "survivor count", "setting": "dose: 12.0 mg/kg/injection, vehicle: saline", "value": "10 of 10"}, {"measurement": "survivor count", "setting": "[3]", "value": "9 of 10"}, {"measurement": "T/C", "setting": "dose: 25.0 mg/kg/injection, vehicle: saline", "value": "126 % of control"}, {"measurement": "survivor count", "setting": "[4]", "value": "2 of 10"}, {"measurement": "T/C", "setting": "[5]", "value": "131, 134, 137 % of control"}, {"measurement": "T/C", "setting": "[6]", "value": "134 and 141 % of control"}, {"measurement": "T/C", "setting": "[7]", "value": "145 % of control"}, {"measurement": "survivor count", "setting": "[7]", "value": "10 of 10"}]}, {"compound": "CC1[C@@H]2CC=C3[C@H]4CCC5Cc6nc7c(nc6C[C@@]5(C)C4CC(=O)[C@]32CO[C@]12OC(C)(C)CC2O)CC1CC[C@@H]2C3=C[C@H]4O[C@@]5(O[C@@](C)(CO)C[C@@H]5O)C(C)[C@@]4(O)[C@]3(C)[C@@H](O)CC2[C@]1(C)C7", "note": "(some centres not stated)", "values": [{"measurement": "survivor count", "setting": "dose: 100.0 micrograms/kg/injection, vehicle: saline + alcohol", "value": "10 of 10"}]}, {"compound": "[Cl][Mn][Cl]", "values": [{"measurement": "T/C", "setting": "[1]", "value": "129 % of control"}, {"measurement": "T/C", "setting": "[2]", "value": "128 % of control"}, {"measurement": "T/C", "setting": "[3]", "value": "130 and 142 % of control"}, {"measurement": "T/C", "setting": "[4]", "value": "129 and 136 % of control"}, {"measurement": "T/C", "setting": "dose: 64.0 mg/kg/injection, vehicle: saline", "value": "145 % of control [9 of 10 alive]"}, {"measurement": "survivor count", "setting": "dose: 128.0 mg/kg/injection, vehicle: saline", "value": "0 of 10 and 1 of 10"}]}, {"compound": "Nc1nc(/C=C(/O)c2ccccc2)c2ncn(C3OC(CO)C(O)C3O)c2n1", "note": "(configuration not stated)", "values": [{"measurement": "survivor count", "setting": "[8]", "value": "5 of 10"}, {"measurement": "survivor count", "setting": "[9]", "value": "0 of 10"}, {"measurement": "survivor count", "setting": "[7]", "value": "4 of 10"}]}, {"compound": "CN(C)/N=N/c1nc[nH]c1C(N)=O", "values": [{"measurement": "T/C", "setting": "dose: 50.0 mg/kg/injection, vehicle: distilled water + Tween-80", "value": "125 % of control"}, {"measurement": "T/C", "setting": "[10]", "value": "125 % of control"}, {"measurement": "survivor count", "setting": "[8]", "value": "8 of 10"}, {"measurement": "survivor count", "setting": "[9]", "value": "9 of 10"}, {"measurement": "survivor count", "setting": "[11]", "value": "9 of 10"}]}, {"compound": "CCCC(=O)OCC1OC(n2cnc3c(=S)nc(N)[nH]c32)C(OC(=O)CCC)C1OC(=O)CCC", "note": "(configuration not stated)", "values": [{"measurement": "survivor count", "setting": "dose: 12.5 mg/kg/injection, vehicle: Klucel (hydroxypropylcellulose) (HPC)", "value": "10 of 10"}, {"measurement": "survivor count", "setting": "dose: 25.0 mg/kg/injection, vehicle: Klucel (hydroxypropylcellulose) (HPC)", "value": "10 of 10"}, {"measurement": "survivor count", "setting": "dose: 50.0 mg/kg/injection, vehicle: Klucel (hydroxypropylcellulose) (HPC)", "value": "10 of 10"}, {"measurement": "survivor count", "setting": "dose: 100.0 mg/kg/injection, vehicle: Klucel (hydroxypropylcellulose) (HPC)", "value": "10 of 10"}]}, {"compound": "CC(=O)Oc1c(C)[nH]ccc1=O", "values": [{"measurement": "survivor count", "setting": "[7]", "value": "10 of 10"}, {"measurement": "survivor count", "setting": "dose: 800.0 mg/kg/injection, vehicle: saline", "value": "9 of 10"}]}, {"compound": "Nc1nc(N)c2cc(S(=O)(=O)c3ccccc3)ccc2n1", "values": [{"measurement": "T/C", "setting": "[10]", "value": "129 and 134 % of control"}, {"measurement": "survivor count", "setting": "[11]", "value": "10 of 10"}, {"measurement": "survivor count", "setting": "[12]", "value": "10 of 10"}]}, {"compound": "CC(C)NCC(O)COc1ccc(O)c(O)c1", "note": "(configuration not stated)", "values": [{"measurement": "survivor count", "setting": "[6]", "value": "5 of 10 and 7 of 10"}, {"measurement": "survivor count", "setting": "[7]", "value": "0 of 10"}]}, {"compound": "CCCCCCCC(=O)[O][Hg][CH2]C1COC([CH2][Hg][O]C(=O)CCCCCCC)CO1", "note": "(configuration not stated)", "values": [{"measurement": "survivor count", "setting": "dose: 25.0 mg/kg/injection, vehicle: saline with Tween-80", "value": "10 of 10"}, {"measurement": "survivor count", "setting": "dose: 50.0 mg/kg/injection, vehicle: saline with Tween-80", "value": "0 of 10 and 4 of 10"}]}, {"compound": "COc1cccc2c1C(=O)c1c(O)c3c(c(O)c1C2=O)CC(O)(/C(C)=N/NC(=O)CCCCC(=O)N/N=C(\\C)C1(O)Cc2c(O)c4c(c(O)c2C(OC2CC(N)C(O)C(C)O2)C1)C(=O)c1c(OC)cccc1C4=O)CC3OC1CC(N)C(O)C(C)O1", "note": "(configuration not stated)", "values": [{"measurement": "survivor count", "setting": "dose: 12.5 mg/kg/injection, vehicle: water", "value": "10 of 10"}, {"measurement": "survivor count", "setting": "dose: 25.0 mg/kg/injection, vehicle: water", "value": "10 of 10"}]}, {"compound": "Cc1ccc(S(=O)(=O)OCCN(CCOS(=O)(=O)c2ccc(C)cc2)c2ccc(F)cc2)cc1", "values": [{"measurement": "T/C", "setting": "dose: 100.0 mg/kg/injection, vehicle: saline + alcohol", "value": "127 % of control"}]}, {"compound": "N#CCCN(C(=S)Nc1cccc(C(F)(F)F)c1)C1CCCCC1", "values": [{"measurement": "survivor count", "setting": "[12]", "value": "10 of 10"}]}, {"compound": "CNC(=O)ON(C(C)=O)C(=O)NC", "values": [{"measurement": "survivor count", "setting": "[5]", "value": "0 of 9"}, {"measurement": "survivor count", "setting": "[6]", "value": "0 of 9"}, {"measurement": "survivor count", "setting": "[7]", "value": "0 of 9"}]}, {"compound": "O=C1CN(Cc2ccc3c(c2)OCO3)NO1", "values": [{"measurement": "survivor count", "setting": "[10]", "value": "9 of 10"}, {"measurement": "survivor count", "setting": "dose: 200.0 mg/kg/injection, vehicle: saline with Tween-80", "value": "9 of 10 and 10 of 10"}]}]}
